# According to PubChem BioAssay AID493014 (National Center for Advancing Translational Sciences (NCATS), 2011):
# The campaign covered roughly 340,000 compounds. About 170 (0.05%) were called active. The shares of active, inactive and inconclusive entries below differ from those in the screen. The call rests on the fitted dose curve; in most records, active means well fitted inhibition curve with a large enough effect in the signal ratio, with a control signal flat (not every such curve was filed as active); inconclusive means small, poorly fitted or top-dose-only effect, or effect the other way, or a change in a side signal; inactive means flat fitted curve, though single readings scatter; the % refers to the signal ratio. Potencies beside an inconclusive call are fits to weak or partial responses and may not hold up.
# Assay: qHTS Assay to Find Inhibitors of Chronic Active B-Cell Receptor Signaling;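 on activity change, negative = inhibition: plate controls were basal doxycycline-induced cells for no effect and cells given 10 µM MG132 for full effect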
# Settings: ABC-DLBCL IkBa-CBG/CBR reporter, luminescence ratio (green luciferase fused to IkBa over red control in TMD8 lymphoma cells), 4 h; activity change, negative = inhibition: at 46.1 µM (top of the series)
# Procedure, shortened: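 TMD8 human ABC-DLBCL cells with doxycycline-inducible IκBα–green luciferase fusion and unfused red luciferase, in 0.5% FBS medium; compounds up to 46 uM, 4 h at 37C. Green/red luminescence ratio, filter-overlap corrected, fitted to concentration-response curves.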
# Potency means the concentration at half of the fitted maximal effect.
SMILES,"activity change, negative = inhibition",Potency
Cc1ccc(NC(=O)CNC(c2ccccc2)c2ccccc2)c(F)c1,inconclusive: 2.55%,
COC(=O)c1ccccc1NC(=O)NCc1ccccn1,inconclusive: -12%,
COc1ccc2oc(/C=C/N(C)C)c(C(=O)c3ccc(Cl)cc3)c2c1,inactive: 15.3%,
COc1ccc2nc(NC(=O)c3cccc(S(=O)(=O)N4CCOCC4)c3)sc2c1,inconclusive: -6.66%,
CCc1ccccc1NC(=O)C1COc2ccccc2O1 (stereo not given),inconclusive: -0.265%,
Cc1ccc(S(=O)(=O)CCC(=O)OCC(=O)N2CCN(c3ccccc3)CC2)cc1,inactive: 9.04%,
Cc1cccc(-c2noc(-c3ccoc3C)n2)c1,inconclusive: 3.59%,
Cc1cc(F)ccc1S(=O)(=O)Nc1ccc(C(=O)N(C)Cc2ccco2)cc1,inconclusive: 8.73%,
CCN1CCCc2cc(CN(CCN3CCOCC3)C(=O)Nc3ccc(C)c(C)c3)ccc21,inconclusive: 2.21%,
Cc1ccccc1-c1nnc(SCCOc2ccc3c(C)cc(=O)oc3c2)o1,inconclusive: 9.74%,
CSCc1ccc(C(=O)Nc2cccc(C)c2C)cc1,,"inconclusive: 9.2 µM [falling, partial curve]"
CCOC(=O)c1c(NS(=O)(=O)c2cccc(OC)c2)sc2c1CCC2,inactive: 5.16%,
CCOc1ccccc1N1CCN(C(=O)c2cc3ccccc3cc2OC)CC1,,"inconclusive: 23.1 µM [falling, single point]"
CCn1nc(C)c(NC(=O)/C=C/c2ccc(OC)c(COc3ccc(Br)cc3)c2)c1C,,"inconclusive: 3.26 µM [falling, single point]"
O=C1C(Cl)=C(Nc2ccc(O)cc2)C(=O)c2ccccc21,,"inconclusive: 7.94 µM [rising, partial curve]"
COc1ccc(C(C)=O)cc1CSc1nc2ccccc2c(=O)n1-c1ccccc1C,inconclusive: -10.8%,
CC(=O)N1N=C(c2ccco2)CC1c1cccs1 (stereo not given),inactive: -1.18%,
Cc1ccc(OCc2nc(-c3ccc(-n4cccc4)cc3)no2)cc1C,inconclusive: 3.75%,
CC(C)(C)c1ccc(C(=O)OCCN2CCCCC2)cc1,inactive: -1.29%,
COc1ccc(-c2cc(C(=O)Nc3ccccc3SC)no2)cc1OC,,"inconclusive: 14.1 µM [falling, partial curve, poor fit]"

# Exported bar-delimited: entries from further up
SMILES | activity change, negative = inhibition | Potency
COc1ccc2nc(NC(=O)c3cccc(S(=O)(=O)N4CCOCC4)c3)sc2c1 | inconclusive: -6.66% | 
CCc1ccccc1NC(=O)C1COc2ccccc2O1 (stereo not given) | inconclusive: -0.265% | 
Cc1ccc(S(=O)(=O)CCC(=O)OCC(=O)N2CCN(c3ccccc3)CC2)cc1 | inactive: 9.04% | 

# Further results follow:

SMILES,"activity change, negative = inhibition",Potency
Nc1ccc(C(=O)N/N=C\c2cc(N=Nc3cccc4ccccc34)ccc2O)cc1,,"inconclusive: 8.91 µM [falling, partial curve, poor fit]"
COc1cc(/C=C2/CCc3ccccc3C2=O)cc(OC)c1OC,,"inconclusive: 20.6 µM [falling, partial curve]"
CCC(=O)Nc1cccc(-c2ccc(N3CCCCC3)nn2)c1,,"inconclusive: 35.5 µM [falling, single point]"
O=C(Cc1cccs1)NCc1cn2ccccc2n1,,"inconclusive: 3.66 µM [rising, partial curve, poor fit]"
COc1ccc(N(CC(=O)N2CCc3ccccc32)S(=O)(=O)c2c(C)nn(C)c2C)cc1,,"inconclusive: 2.91 µM [rising, partial curve, poor fit]"
Cc1ccc2c(c1)nc(NCCCO)n2C,inconclusive: -6.93%,
O=C(Nc1ccc(Cl)cc1)N(Cc1cccs1)Cc1cccs1,inconclusive: 17%,
Cc1ccccc1C(=O)Nn1c(C)ccc1C,,"inconclusive: 35.5 µM [falling, single point]"
c1ccc(CN2CCC(Nc3nc(-c4cccnc4)nc4ccccc34)CC2)cc1,inconclusive: 2.8%,
COC(=O)c1cccnc1NC(=S)NNC(=O)c1ccncc1,,"inconclusive: 2.06 µM [falling, partial curve, poor fit]"
COc1cc(CN(C)C)cc(C=O)c1O,inactive: 8.55%,
O=C(NCc1ccccn1)c1cn(Cc2ccccc2)nn1,inconclusive: 5.38%,
Cn1nnc2c(NCc3c(F)cccc3F)ncnc21,inconclusive: -5.13%,
CN1CCN(C(c2ccc(F)cc2)c2nnnn2Cc2cccs2)CC1 (stereo not given),inconclusive: -1.88%,
O=C1/C(=C/c2ccc(F)cc2)CCC1C1CCCC1 (stereo not given),,"inconclusive: 0.82 µM [rising, full curve, poor fit]"
C#CC(=O)N(c1ccc(OC)cc1OC)C(C(=O)NC1CCCC1)c1cccs1 (stereo not given),,"inconclusive: 35.5 µM [falling, single point]"
COc1cccc(N(CC(=O)N2CCN(c3ccccc3OC)CC2)S(C)(=O)=O)c1,inactive: -24.5%,
O=C1CNC(=S)N1CCc1ccc(O)c(O)c1,inactive: 2.86%,
O=C1S/C(=C\c2ccc(Cl)cc2)C(=O)N1CCn1cnnn1,,"inconclusive: 11.2 µM [falling, partial curve]"
COCCN(C(=O)CNC(=O)c1ccco1)C(C(=O)NC1CCCCC1)c1cccnc1 (stereo not given),,"inconclusive: 20 µM [falling, partial curve, poor fit]"
